This note sets out measurements from paper doi:10.1101/360628.

Chains of the proteins cited; added tags and fusions are not shown. Lines headed by an entry give the natural chain unless they say otherwise; changes in a name come on top.
UniProt P42003: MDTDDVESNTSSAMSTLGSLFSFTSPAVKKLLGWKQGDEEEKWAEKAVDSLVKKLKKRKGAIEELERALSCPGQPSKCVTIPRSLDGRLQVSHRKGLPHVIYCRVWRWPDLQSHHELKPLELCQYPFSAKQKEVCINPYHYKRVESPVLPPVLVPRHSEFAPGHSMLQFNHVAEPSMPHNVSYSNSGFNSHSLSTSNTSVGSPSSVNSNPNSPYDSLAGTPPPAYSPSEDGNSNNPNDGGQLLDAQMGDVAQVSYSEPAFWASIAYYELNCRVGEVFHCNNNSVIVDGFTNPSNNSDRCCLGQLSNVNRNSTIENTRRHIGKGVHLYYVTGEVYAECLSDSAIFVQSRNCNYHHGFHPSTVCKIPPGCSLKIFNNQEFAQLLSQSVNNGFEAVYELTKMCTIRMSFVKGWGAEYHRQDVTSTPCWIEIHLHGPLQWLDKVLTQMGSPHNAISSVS
UniProt Q9VT57: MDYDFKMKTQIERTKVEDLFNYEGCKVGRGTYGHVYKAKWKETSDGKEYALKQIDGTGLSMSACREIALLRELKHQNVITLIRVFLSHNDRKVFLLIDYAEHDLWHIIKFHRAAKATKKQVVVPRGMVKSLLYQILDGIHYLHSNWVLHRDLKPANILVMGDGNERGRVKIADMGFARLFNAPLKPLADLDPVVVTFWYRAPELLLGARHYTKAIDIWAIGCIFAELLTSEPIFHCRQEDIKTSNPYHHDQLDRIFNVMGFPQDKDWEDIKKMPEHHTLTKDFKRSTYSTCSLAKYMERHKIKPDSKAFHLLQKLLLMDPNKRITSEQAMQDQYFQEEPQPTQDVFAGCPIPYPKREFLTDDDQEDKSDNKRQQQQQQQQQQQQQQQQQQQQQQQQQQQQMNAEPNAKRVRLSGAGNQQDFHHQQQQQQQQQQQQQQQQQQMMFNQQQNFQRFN

Results are given in words; binding and its absence hold for the method and conditions named. For some of these results: In cells and extracts the contact can be indirect. Some binding calls cover weakened binding; strength is not graded here.

Test [1] addresses BD-Mad-N1 (Mad-N1 fragment as the bait, GAL4-DNA-binding domain fusion) (Drosophila) (UniProt P42003). Description: two-hybrid.
In test [2] the target is BD-Mad-N2 (Mad-N2 fragment as the bait, GAL4-DNA-binding domain fusion) (Drosophila) (UniProt P42003). Description: two-hybrid.
Test [3] concerns the target GST-CDK8 (full-length CDK8 fused with an N-terminal GST tag) (Drosophila) (UniProt Q9VT57). Description: pull-down.

Take “AD-CDK8 (full length CDK8 as the prey, GAL4-activation domain fusion) (from UniProt Q9VT57 1-454) (enzyme)”: the binding entry is “no binding” in test [1] and “binds” in test [2].

For the substance “His-tagged Mad-C1 fragment (AA231-455) (from UniProt P42003 231-455) (domain or fragment)”, the binding entry in test [3] was “no binding”.

On to “His-tagged Mad-N1 fragment (AA1-150) (from UniProt P42003 1-150) (domain or fragment)”, for which the binding result in test [3] is given as “no binding”.

Take “His-tagged Mad-N2 fragment (AA1-230) (from UniProt P42003 1-230) (domain or fragment)”: in test [3], the binding result is listed as “binds”.

In the case of “His-tagged full length Mad (Mad-FL, AA1-455) (from UniProt P42003 1-455)”, in test [3], the binding result is “binds”.

For “His-tagged Mad-C2 fragment (AA151-455) (from UniProt P42003 151-455) (domain or fragment)”, the binding result in test [3] was “binds”.
